Laboratory results as given in US20240109963A1.
Results are given in words; binding and its absence hold for the method and conditions named. Some binding calls cover weakened binding; strength is not graded here.

Protein sequences, listed by entry. Tags and fused reporters are not part of them. Lines headed by an entry give the natural chain unless they say otherwise; changes in a name come on top. Chains listed by the source or under a name are the forms on record and can include a tag or linker.
Claudin 18.2 on CHO cells (CHO+ Claudin 18.2) (P56856, form named): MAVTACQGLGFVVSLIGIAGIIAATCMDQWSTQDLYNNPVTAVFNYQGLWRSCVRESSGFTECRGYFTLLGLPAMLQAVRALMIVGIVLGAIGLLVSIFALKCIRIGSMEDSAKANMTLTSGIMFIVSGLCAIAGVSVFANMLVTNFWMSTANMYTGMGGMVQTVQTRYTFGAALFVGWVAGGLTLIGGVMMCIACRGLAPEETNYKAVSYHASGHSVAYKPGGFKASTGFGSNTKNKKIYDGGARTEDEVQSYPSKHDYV

Target: Claudin 18.2 on CHO cells (CHO+ Claudin 18.2) (UniProt P56856)
Assay: flow cytometry, unpurified supernatant on CHO+ Claudin 18.2 cells, PE-positive cells

B1: Claudin 18.2-3C2 (VHH)
VHH: QVQLVESGGGLVQPGGSLRLSCAASGFTFSNYAMYWVRQAPGKGPEWVSVISGGGGVISYADSVKGRFTISRDNAKNTMYLQMNSLKPEDTAVYYCNAQSAVWWENDYWGQGTQVTVSS
  binding: binds

B2: Claudin 18.2-4G1 (VHH)
VHH: QVQLVESGGGVVQTGGSLRLTCEISGAALSSYTMGWFRQAPGKEREFVAAISWGGSITWYADSVKGRFTISRDNAKNTVYLQMNSLKPEDTAVYYCHAEGQFGALSYPKDYWGQGTQVTVSS
  binding: binds
